From article PMC12613626
Results are given in words; binding and its absence hold for the method and conditions named. In cells and extracts the contact can be indirect. Some binding calls cover weakened binding; strength is not graded here. Where a sequence is shown, tags or fusion partners need not be part of it.

By UniProt entry, the sequences of proteins in these tests, tags left out.
UniProt Q13562: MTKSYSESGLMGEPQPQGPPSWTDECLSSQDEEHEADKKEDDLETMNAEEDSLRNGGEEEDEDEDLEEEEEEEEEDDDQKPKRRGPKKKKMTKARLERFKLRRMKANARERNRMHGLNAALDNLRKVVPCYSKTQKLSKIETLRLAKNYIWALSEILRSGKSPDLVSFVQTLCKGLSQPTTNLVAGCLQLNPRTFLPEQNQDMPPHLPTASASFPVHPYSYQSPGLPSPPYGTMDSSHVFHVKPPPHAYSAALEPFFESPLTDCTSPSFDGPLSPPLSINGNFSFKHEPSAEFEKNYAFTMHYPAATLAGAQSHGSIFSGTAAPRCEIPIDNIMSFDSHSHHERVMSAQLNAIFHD

Experiments:
[1] = target: T1, 3×Flag-labeled Neurog3 overexpressed in Panc-1 cells (UniProt Q9Y4Z2); test: co-IP; Lysates of OE-NeuroD1-GFP or OE-Neurog3-3×Flag Panc-1 cells; precipitation with the antibody to the tagged protein; partner detected by Western blotting; NETN buffer, Protein A/G agarose, 4 h at 4 °C
T1 sequence: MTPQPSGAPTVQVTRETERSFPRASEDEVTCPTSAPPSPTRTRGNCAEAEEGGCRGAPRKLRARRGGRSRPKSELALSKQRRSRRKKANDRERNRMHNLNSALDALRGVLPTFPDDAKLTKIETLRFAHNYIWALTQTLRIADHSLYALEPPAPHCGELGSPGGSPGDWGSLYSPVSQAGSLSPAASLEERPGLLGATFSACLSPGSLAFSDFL

[2] = target: GFP-labeled NeuroD1 (neurogenic differentiation factor 1) overexpressed in Panc-1 cells (UniProt Q13562); test: as above

Molecule | binding [1] | binding [2]
NeuroD1 in Neurog3-3×Flag-overexpressing Panc-1 cells (from UniProt Q13562 1-356) | binds | 
Neurogenin 3 (Neurog3) in NeuroD1-GFP-overexpressing Panc-1 cells (protein, UniProt Q9Y4Z2 1-214) MTPQPSGAPTVQVTRETERSFPRASEDEVTCPTSAPPSPTRTRGNCAEAEEGGCRGAPRKLRARRGGRSRPKSELALSKQRRSRRKKANDRERNRMHNLNSALDALRGVLPTFPDDAKLTKIETLRFAHNYIWALTQTLRIADHSLYALEPPAPHCGELGSPGGSPGDWGSLYSPVSQAGSLSPAASLEERPGLLGATFSACLSPGSLAFSDFL |  | binds
